From the supplement of paper PMC10849652
The other results are listed elsewhere or left out.

By UniProt entry, the sequences of proteins in these tests, tags left out. Where a name states a change or a piece, a line headed by the entry shows the natural chain unless it says otherwise.
UniProt Q5SSJ5: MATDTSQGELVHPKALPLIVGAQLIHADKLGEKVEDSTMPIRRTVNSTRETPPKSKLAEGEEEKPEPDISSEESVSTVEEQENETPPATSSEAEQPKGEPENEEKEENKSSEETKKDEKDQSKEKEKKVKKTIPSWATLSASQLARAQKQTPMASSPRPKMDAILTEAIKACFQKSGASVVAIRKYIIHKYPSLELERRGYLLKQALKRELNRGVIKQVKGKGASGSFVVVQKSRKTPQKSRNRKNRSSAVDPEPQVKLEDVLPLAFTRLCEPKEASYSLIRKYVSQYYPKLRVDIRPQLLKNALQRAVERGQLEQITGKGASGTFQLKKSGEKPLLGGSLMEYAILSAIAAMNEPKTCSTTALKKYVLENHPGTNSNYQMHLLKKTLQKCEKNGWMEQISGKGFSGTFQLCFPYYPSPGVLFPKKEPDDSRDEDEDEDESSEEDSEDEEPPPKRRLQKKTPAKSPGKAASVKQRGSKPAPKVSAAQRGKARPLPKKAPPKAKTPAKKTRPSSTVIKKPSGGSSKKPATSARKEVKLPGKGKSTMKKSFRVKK
UniProt Q96FZ2: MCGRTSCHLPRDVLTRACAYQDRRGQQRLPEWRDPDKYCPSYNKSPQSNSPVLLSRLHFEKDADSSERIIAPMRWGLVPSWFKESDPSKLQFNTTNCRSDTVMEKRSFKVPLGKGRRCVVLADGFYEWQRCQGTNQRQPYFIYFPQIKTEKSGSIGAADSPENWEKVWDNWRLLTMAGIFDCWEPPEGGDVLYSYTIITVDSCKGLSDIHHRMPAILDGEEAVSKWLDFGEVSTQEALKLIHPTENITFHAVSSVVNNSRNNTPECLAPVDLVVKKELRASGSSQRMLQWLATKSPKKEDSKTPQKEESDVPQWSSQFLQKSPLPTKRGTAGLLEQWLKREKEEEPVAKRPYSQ
UniProt Q9NP66: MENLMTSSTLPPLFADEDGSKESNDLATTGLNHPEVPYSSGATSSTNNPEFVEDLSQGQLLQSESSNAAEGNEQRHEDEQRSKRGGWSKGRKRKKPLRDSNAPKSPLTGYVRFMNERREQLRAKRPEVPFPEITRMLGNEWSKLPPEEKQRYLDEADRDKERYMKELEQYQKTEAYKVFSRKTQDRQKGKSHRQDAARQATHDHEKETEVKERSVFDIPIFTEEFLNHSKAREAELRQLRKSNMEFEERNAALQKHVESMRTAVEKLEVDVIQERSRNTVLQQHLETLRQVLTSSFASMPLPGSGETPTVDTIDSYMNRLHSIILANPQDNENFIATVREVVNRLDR
UniProt P52597: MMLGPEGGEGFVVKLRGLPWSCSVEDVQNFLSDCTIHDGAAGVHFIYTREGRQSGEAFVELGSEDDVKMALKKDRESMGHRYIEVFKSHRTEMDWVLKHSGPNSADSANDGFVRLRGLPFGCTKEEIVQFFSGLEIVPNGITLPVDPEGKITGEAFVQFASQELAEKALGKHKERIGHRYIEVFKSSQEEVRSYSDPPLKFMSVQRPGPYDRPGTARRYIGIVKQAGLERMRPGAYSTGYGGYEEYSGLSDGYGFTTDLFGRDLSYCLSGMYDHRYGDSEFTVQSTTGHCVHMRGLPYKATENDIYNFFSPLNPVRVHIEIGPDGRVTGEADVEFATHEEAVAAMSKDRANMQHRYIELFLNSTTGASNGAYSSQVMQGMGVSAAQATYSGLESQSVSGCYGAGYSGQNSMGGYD
UniProt P00738: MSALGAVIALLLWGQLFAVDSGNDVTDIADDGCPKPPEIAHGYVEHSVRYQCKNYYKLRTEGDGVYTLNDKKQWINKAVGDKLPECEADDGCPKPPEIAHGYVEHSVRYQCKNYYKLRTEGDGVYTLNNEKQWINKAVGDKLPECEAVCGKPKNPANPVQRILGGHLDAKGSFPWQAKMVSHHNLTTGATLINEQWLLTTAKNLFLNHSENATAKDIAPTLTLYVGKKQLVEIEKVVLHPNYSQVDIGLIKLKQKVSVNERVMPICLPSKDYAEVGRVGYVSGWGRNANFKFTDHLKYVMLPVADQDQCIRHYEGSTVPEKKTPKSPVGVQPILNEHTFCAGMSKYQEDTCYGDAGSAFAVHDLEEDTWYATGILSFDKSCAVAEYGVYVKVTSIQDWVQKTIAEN
UniProt P30939: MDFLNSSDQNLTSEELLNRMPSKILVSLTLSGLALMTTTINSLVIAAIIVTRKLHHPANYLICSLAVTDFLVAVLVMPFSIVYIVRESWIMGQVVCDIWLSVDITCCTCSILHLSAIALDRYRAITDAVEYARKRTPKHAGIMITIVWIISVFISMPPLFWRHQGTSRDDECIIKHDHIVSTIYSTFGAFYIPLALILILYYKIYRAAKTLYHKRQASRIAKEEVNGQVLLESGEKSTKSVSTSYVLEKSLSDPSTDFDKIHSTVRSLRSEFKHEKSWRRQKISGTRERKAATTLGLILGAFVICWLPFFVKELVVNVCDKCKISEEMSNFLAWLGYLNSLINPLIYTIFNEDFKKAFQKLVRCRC
UniProt Q9Y2F5: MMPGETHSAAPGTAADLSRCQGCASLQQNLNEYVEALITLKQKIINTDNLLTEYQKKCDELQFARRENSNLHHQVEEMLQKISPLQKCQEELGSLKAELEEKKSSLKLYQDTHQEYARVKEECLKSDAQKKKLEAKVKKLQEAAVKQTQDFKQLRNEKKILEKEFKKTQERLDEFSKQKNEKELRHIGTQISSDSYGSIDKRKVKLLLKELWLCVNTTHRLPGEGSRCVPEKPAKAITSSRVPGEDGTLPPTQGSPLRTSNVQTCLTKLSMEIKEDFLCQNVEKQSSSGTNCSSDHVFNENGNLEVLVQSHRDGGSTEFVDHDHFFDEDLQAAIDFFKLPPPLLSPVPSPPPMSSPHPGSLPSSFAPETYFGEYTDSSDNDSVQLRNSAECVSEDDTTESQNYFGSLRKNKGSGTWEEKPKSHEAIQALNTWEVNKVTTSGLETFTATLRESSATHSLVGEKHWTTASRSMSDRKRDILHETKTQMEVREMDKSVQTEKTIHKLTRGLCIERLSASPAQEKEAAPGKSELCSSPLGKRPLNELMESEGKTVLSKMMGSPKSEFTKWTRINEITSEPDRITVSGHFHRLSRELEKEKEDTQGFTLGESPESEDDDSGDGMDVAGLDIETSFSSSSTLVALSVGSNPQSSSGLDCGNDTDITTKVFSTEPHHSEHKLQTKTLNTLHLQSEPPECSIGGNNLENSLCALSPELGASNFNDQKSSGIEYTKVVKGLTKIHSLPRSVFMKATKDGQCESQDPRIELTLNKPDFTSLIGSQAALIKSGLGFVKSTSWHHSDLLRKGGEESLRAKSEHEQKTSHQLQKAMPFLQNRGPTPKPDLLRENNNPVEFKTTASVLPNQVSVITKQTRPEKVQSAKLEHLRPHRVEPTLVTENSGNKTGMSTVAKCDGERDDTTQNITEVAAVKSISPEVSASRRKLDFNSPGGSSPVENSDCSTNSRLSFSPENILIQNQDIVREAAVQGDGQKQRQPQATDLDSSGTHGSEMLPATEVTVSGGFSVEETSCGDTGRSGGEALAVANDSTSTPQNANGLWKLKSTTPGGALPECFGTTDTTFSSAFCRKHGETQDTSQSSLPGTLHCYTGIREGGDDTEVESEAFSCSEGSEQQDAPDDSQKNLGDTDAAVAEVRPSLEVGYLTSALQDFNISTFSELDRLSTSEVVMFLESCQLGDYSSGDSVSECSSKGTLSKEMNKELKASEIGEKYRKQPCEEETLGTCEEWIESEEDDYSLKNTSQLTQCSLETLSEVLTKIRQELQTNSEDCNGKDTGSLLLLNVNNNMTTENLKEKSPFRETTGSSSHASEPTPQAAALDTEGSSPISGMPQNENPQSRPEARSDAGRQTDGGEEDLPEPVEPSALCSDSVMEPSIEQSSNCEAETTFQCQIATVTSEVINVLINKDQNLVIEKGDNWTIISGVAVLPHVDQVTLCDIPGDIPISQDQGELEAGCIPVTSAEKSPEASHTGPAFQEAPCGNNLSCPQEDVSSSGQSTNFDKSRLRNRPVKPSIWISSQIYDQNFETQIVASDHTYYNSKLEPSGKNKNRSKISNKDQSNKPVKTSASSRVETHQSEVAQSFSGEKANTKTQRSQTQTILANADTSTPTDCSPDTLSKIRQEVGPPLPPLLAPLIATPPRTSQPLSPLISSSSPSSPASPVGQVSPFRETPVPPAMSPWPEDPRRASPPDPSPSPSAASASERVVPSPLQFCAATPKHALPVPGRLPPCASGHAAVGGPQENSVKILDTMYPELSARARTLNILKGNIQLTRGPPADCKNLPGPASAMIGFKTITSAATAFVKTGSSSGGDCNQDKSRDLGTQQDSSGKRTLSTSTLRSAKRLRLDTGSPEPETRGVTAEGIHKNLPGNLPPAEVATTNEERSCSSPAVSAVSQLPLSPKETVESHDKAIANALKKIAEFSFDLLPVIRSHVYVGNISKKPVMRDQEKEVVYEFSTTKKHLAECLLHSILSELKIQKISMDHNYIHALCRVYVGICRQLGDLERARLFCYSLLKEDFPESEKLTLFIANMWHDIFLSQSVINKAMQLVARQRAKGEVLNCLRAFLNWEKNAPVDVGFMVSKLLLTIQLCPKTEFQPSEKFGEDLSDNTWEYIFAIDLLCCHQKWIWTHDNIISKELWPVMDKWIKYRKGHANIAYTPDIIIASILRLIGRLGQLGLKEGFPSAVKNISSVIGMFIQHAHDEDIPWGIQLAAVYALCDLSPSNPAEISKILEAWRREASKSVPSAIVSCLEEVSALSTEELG
UniProt O43390: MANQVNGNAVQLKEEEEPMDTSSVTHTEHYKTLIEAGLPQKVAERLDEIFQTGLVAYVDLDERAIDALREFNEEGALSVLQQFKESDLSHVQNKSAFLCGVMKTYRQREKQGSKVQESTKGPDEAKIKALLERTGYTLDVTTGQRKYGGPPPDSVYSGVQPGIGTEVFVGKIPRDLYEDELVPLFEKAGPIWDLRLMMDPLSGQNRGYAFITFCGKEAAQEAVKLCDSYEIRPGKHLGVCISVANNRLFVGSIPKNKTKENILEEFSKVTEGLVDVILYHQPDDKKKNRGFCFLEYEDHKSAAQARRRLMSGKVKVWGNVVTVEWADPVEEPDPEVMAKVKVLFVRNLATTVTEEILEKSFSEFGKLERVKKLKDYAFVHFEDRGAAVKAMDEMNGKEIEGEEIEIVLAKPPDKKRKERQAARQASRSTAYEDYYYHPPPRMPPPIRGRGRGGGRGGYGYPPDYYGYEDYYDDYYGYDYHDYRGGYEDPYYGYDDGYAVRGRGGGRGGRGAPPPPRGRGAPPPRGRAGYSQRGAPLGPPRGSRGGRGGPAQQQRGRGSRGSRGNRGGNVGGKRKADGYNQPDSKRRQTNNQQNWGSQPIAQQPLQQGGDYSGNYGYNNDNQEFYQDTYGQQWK
UniProt Q05084: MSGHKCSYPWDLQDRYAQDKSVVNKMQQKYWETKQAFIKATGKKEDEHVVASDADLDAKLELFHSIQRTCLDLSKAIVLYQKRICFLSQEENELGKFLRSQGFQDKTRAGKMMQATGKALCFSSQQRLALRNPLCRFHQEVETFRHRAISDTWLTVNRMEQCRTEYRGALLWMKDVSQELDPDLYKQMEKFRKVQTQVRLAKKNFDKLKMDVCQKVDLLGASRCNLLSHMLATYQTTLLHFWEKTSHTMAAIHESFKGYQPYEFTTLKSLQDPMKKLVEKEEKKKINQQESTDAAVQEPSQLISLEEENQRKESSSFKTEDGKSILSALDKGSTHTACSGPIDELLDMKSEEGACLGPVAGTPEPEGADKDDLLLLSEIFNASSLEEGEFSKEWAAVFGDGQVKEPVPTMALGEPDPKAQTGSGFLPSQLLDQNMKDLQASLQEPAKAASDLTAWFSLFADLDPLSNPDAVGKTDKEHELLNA
UniProt Q8TCT9: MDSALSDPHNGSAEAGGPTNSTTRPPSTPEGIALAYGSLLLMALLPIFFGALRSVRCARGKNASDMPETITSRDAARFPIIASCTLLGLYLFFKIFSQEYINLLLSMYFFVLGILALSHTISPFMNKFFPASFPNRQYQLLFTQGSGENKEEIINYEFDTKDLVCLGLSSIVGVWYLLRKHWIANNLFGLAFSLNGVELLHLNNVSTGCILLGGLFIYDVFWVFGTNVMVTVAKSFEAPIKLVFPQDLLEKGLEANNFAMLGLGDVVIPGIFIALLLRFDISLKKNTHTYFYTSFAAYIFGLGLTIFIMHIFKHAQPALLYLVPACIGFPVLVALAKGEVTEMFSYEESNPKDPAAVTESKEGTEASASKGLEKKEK
UniProt Q9P0W2: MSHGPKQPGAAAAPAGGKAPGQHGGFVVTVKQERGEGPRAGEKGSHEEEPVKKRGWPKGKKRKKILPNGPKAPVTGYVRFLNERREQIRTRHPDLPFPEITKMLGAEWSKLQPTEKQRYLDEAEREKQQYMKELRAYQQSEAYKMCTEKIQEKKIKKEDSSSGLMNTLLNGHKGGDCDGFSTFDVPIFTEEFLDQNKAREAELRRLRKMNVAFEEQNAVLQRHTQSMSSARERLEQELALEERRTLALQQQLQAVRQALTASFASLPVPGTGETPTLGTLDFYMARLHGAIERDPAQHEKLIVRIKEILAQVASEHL
UniProt O75506: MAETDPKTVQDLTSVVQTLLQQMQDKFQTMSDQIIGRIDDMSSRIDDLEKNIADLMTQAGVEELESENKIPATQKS

Tests used:
Assay in all cases: log2 fold change, soluble protein after heating vs DMSO (PISA); higher = thermal stabilisation; K562 cells, 10 uM, 30 min; active = over 0.2 and 3.5 SD of the protein, either way, in both replicates (recomputed)
[1] = compound: CN1CCN(CCOc2cc(OC3CCOCC3)c3c(Nc4c(Cl)ccc5c4OCO5)ncnc3c2)CC1 [saracatinib]
Summary of the method: (§1)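 For each measurement, 10 μM compound was applied for 30 min to K562 cells at 2×10^6 cells/mL. Aliquots were heated for 3 min across 48°C-58°C, pooled, and extracted in PBS with 0.5% NP-40 at 4°C; the supernatant after 21,000xg for 90 min was soluble protein. This was quantified by TMTpro 16plex LC-MS/MS with channel sums equalised, and thermal stability was reported relative to control samples from duplicates, on a log2 fold-change scale.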

[2] = compound: CN1CCN(c2nc(C3=C(c4c[nH]c5ccccc45)C(=O)NC3=O)c3ccccc3n2)CC1 [sotrastaurin]
Summary of the method: as §1

[3] = compound: CN1CCc2c(c3ccccc3n2Cc2ccc(C(=O)NO)cc2)C1 [Tubastatin A]
Summary of the method: as §1

[4] = compound: CNC(=O)C1=CC=CC=C1NC2=NC(=NC=C2Cl)NC3=C(C=C(C=C3)N4CCOCC4)OC
Summary of the method: as §1

[5] = compound: CNC(=O)c1ccc(Nc2ncc(C(F)(F)F)c(NCc3nccnc3N(C)S(C)(=O)=O)n2)cc1 [defactinib]
Summary of the method: as §1

[6] = compound: CNCc1ccc(-c2[nH]c3cc(F)cc4c3c2CCNC4=O)cc1 [rucaparib]
Summary of the method: as §1

[7] = compound: CNc1nc(-c2ccc3c(N)n[nH]c3c2)cc(N2C[C@@H](C(=O)NC3CCCCC3)CC[C@H]2C)n1
Summary of the method: as §1

[8] = compound: COC(=O)N[C@@H](C)CNc1nccc(-c2cn(C(C)C)nc2-c2cc(Cl)cc(NS(C)(=O)=O)c2F)n1 [encorafenib]
Summary of the method: as §1

[9] = compound: COC(=O)[C@H](CCSC)NC(=O)C1=C(C=C(C=C1)NC[C@H](CS)N)C2=CC=CC=C2
Summary of the method: as §1

[10] = compound: CN1CC[C@H](c2c(O)cc(O)c3c(=O)cc(-c4ccccc4Cl)oc23)[C@H](O)C1 [alvocidib]
Summary of the method: as §1

Measured: log2 fold change

HP1BP3 (UniProt Q5SSJ5)
inactive: [1] -0.045 | [2] -0.071 | [3] 0.06 | [4] -0.045 | [5] 0.227 | [6] -0.041 | [7] -0.001 | [8] 0.075 | [9] -0.098

HMGB3 (UniProt O15347)
inactive: [1] 0.05 | [2] 0.031 | [3] 0 | [4] -0.076 | [5] 0.089 | [6] 0.008 | [7] -0.073 | [8] -0.063 | [9] 0.021

HIST2H3A (UniProt Q71DI3)
inactive: [1] -0.196 | [2] 0.063 | [3] 0.17 | [4] -0.166 | [5] 0.339 | [6] 0.306 | [7] 0.185 | [8] -0.063 | [9] 0.093

HMCES (UniProt Q96FZ2)
inactive: [1] 0.125 | [2] -0.028 | [3] -0.007 | [4] 0.04 | [6] -0.146 | [7] 0.069 | [8] 0.12

HPCAL1 (UniProt P37235)
inactive: [1] 0.011 | [2] 0.017 | [3] -0.085 | [4] 0.048 | [5] -0.008 | [6] 0.013 | [7] -0.107 | [8] -0.014 | [9] -0.025

HIST2H2AA3 (UniProt Q6FI13)
inactive: [1] -0.051 | [10] 0.198 | [3] -0.03 | [4] -0.056 | [5] 0.569 | [6] 0.186 | [7] 0.065 | [8] -0.341 | [9] 0.131

HS1BP3 (UniProt Q53T59)
active: [7] 0.371
inactive: [1] 0.107 | [2] -0.078 | [4] -0.005 | [5] -0.066 | [6] -0.038 | [8] 0.037 | [9] -0.175

ICAM1 (UniProt P05362)
inactive: [1] 0.035 | [2] 0.07 | [3] -0.03 | [4] -0.073 | [5] -0.026 | [6] 0.049 | [7] 0.099 | [8] -0.004 | [9] 0.043

HNRNPK isoform 2 (UniProt P61978)
active: [5] -0.228
inactive: [1] -0.057 | [2] -0.037 | [3] 0.064 | [4] -0.017 | [6] -0.053 | [7] 0.015 | [8] 0.028 | [9] 0.003

HMG20A (UniProt Q9NP66)
inactive: [1] 0.038 | [2] -0.106 | [3] 0.018 | [4] 0.005 | [5] 0.029 | [6] -0.323 | [7] -0.015 | [8] -0.109 | [9] -0.009

HIST2H2BF isoform 2 (UniProt Q5QNW6)
inactive: [1] -0.084 | [2] 0.074 | [3] 0.093 | [4] -0.044 | [5] 0.313 | [6] 0.325 | [7] 0.039 | [8] 0.015 | [9] 0.05

HNRNPF (UniProt P52597)
inactive: [1] -0.042 | [2] -0.121 | [3] 0.086 | [4] 0.004 | [5] -0.253 | [6] 0.098 | [7] 0.004 | [8] 0.119 | [9] -0.06

HP (UniProt P00738)
inactive: [2] -0.231

HSPA2 (UniProt P54652)
active: [4] 0.809
inactive: [2] 0.038

HSP90AA2P (UniProt Q14568)
inactive: [3] -0.022

Quoted from the listing (2 entries):
HIST2H3A (UniProt Q71DI3)
inactive: [1] -0.196 | [2] 0.063 | [3] 0.17 | [4] -0.166 | [5] 0.339 | [6] 0.306 | [7] 0.185 | [8] -0.063 | [9] 0.093

HMCES (UniProt Q96FZ2)
inactive: [1] 0.125 | [2] -0.028 | [3] -0.007 | [4] 0.04 | [6] -0.146 | [7] 0.069 | [8] 0.12

(next part)

HIGD2A (UniProt Q9BW72)
inactive: [4] -0.01

HNRNPD (UniProt D6RF44)
inactive: [4] -0.048

HPS4 isoform 4 (UniProt Q9NQG7)
inactive: [1] 0.101 | [3] -0.04 | [4] -0.032 | [7] -0.072

HTR1F (UniProt P30939)
inactive: [10] -0.191 | [4] 0.008

HOMER2 (UniProt Q9NSB8)
inactive: [10] 0.103 | [3] -0.132 | [5] 0.031 | [6] -0.035 | [8] 0.169 | [9] 0.117

ICE1 (UniProt Q9Y2F5)
inactive: [2] 0.081

HIGD1A isoform 2 (UniProt Q9Y241)
inactive: [2] 0.012

HNRNPU isoform 2 (UniProt Q00839)
inactive: [1] -0.101 | [3] 0.16 | [7] 0.043

ICOSLG isoform 2 (UniProt O75144)
inactive: [4] 0.296 | [5] -0.07 | [9] -0.317

HPS1 (UniProt Q92902)
inactive: [2] 0.041 | [10] -0.008 | [3] -0.009 | [4] 0.011 | [5] -0.019 | [6] -0.157 | [8] 0.017 | [9] 0.062

HSPBAP1 (UniProt Q96EW2)
inactive: [10] 0.011 | [4] 0.037 | [5] -0.127 | [9] -0.078

HOOK2 (UniProt Q96ED9)
inactive: [10] 0.116 | [3] 0.128 | [6] 0.032 | [8] -0.157

HNRNPR (UniProt O43390)
inactive: [2] 0.057 | [10] 0.054 | [6] 0.154 | [8] 0.026

HMBS (UniProt F5H226)
inactive: [2] 0.085 | [10] 0.21 | [3] -0.104 | [5] 0.067 | [9] -0.224

HSPA8 (UniProt E9PN89)
inactive: [2] 0.105 | [3] -0.018 | [4] -0.057 | [5] 0.044 | [6] 0.101 | [8] 0.023 | [9] -0.036

HOMER3 (UniProt Q9NSC5)
inactive: [2] -0.01 | [10] -0.06 | [4] -0.011

ICA1 isoform 2 (UniProt Q05084)
inactive: [1] 0.013 | [10] -0.039 | [4] 0.156 | [7] 0.099

HNRNPA1 (UniProt H0YH80)
inactive: [2] -0.219 | [10] 0.512 | [3] 0 | [5] 0.332 | [6] 0.509 | [8] 0.157 | [9] 0.036

ICE2 (UniProt Q659A1)
inactive: [10] -0.005 | [4] -0.19 | [5] 0.044 | [9] -0.145

HM13 (UniProt Q8TCT9)
inactive: [2] 0.008 | [10] -0.016 | [3] -0.012 | [5] 0.004 | [6] -0.024 | [8] -0.026 | [9] 0.009

HMG20B (UniProt Q9P0W2)
inactive: [10] -0.105

HPF1 (UniProt Q9NWY4)
inactive: [1] -0.125 | [7] -0.195

HLA-A isoform 2 (UniProt P04439)
inactive: [1] -0.233 | [10] -0.008 | [7] -0.087

HNMT (UniProt P50135)
inactive: [4] -0.052

HOOK1 (UniProt Q9UJC3)
inactive: [1] -0.048 | [5] -0.033 | [6] -0.028 | [7] -0.045 | [8] 0.054 | [9] 0.045

HMGCS2 (UniProt P54868)
inactive: [2] -0.057

Retrieved one by one from the list above, 2 records:
HNMT (UniProt P50135)
inactive: [4] -0.052

HLA-A isoform 2 (UniProt P04439)
inactive: [1] -0.233 | [10] -0.008 | [7] -0.087

Next results follow:

ID1 (UniProt P41134)
inactive: [1] 0.023 | [3] 0.61 | [4] 0.037 | [7] -0.552

HIF1AN (UniProt Q9NWT6)
inactive: [1] 0.024 | [3] 0.15 | [4] 0.032 | [5] -0.06 | [6] 0.049 | [7] 0.009 | [8] -0.016 | [9] 0.05

HTD2 (UniProt P86397)
inactive: [2] 0.067 | [10] -0.119 | [4] -0.007 | [5] 0.041 | [6] -0.131 | [8] 0.006 | [9] 0.001

HSBP1 (UniProt O75506)
inactive: [6] -0.339 | [8] -0.057

HMGXB4 (UniProt Q9UGU5)
inactive: [10] 0.128 | [6] -0.108 | [8] -0.151
